For experiment [1], the target named is T1, Rubber elongation factor (REF) fused to a split mVenus fragment (BiFC) (Hevea brasiliensis) (UniProt P15252).
T1 sequence: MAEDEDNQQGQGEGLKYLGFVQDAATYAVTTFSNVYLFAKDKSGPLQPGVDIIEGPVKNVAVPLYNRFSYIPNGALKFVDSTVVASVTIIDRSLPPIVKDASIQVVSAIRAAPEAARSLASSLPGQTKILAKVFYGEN
The experiment in a line: split reporter; BiFC with split mVenus fragments (pDOE-05 or pDOE-07) in agroinfiltrated N. benthamiana leaf epidermal cells, confocal microscopy 2 days after infiltration; also with REF:mCherry co-expressed (Figure 4B).

Chains of the proteins cited; added tags and fusions are not shown. Lines headed by an entry give the natural chain unless they say otherwise; changes in a name come on top.
UniProt A0A1E1GJI0: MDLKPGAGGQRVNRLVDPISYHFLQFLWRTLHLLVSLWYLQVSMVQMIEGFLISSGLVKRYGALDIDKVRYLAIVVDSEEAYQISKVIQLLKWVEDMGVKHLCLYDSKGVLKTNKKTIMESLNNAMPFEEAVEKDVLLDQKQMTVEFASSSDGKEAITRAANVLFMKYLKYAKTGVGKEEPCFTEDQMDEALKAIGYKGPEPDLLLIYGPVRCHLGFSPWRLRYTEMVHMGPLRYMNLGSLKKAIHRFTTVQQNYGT

Experiment [2] deals with T2, HRT2 (cis-prenyltransferase from Hevea brasiliensis), split-ubiquitin Y2H fusion (Hevea brasiliensis) (UniProt Q8W3U4).
T2 sequence: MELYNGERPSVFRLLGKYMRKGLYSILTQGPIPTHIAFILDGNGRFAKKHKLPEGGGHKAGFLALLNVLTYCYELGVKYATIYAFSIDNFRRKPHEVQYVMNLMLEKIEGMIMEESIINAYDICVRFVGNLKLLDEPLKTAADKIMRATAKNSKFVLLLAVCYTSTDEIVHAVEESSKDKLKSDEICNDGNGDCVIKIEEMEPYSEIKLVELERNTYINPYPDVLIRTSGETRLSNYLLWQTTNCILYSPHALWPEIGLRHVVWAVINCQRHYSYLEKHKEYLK
The experiment in a line: two-hybrid; split-ubiquitin-based Y2H (DUALmembrane Kit 3), pairwise; S. cerevisiae NMY51; bait in pBT3-SUC (Cub-LexA-VP16), prey in pPR3-N (NubG); growth of dilution series on SD(-WL), SD(-WLH), SD(-WLHAde) and SD(-WLHAde) with 1 mM 3-AT, 30°C.

Experiment [3] addresses T3, Rubber elongation factor (REF) from Hevea brasiliensis, split-ubiquitin Y2H fusion (Hevea brasiliensis) (UniProt P15252).
T3 sequence: T1 sequence
The description is as above.

The source of these data is article PMC5110245, “Identification and reconstitution of the rubber biosynthetic machinery on rubber particles from Hevea brasiliensis” (eLife, 2016).

These are yes or no findings as the source states them, for the method shown. For part of these data: In cells and extracts the contact can be indirect. For part of these data: Binding calls can cover weak binding; strength is not graded here. Where a sequence is shown, tags or fusion partners need not be part of it.

For “HRT1-REF bridging protein (HRBP) fused to a split mVenus fragment (BiFC) (from UniProt A0A1E1GJI0)”, the binding entry in experiment [1] was “binds”. Consider “HRT1 (cis-prenyltransferase from Hevea brasiliensis), split-ubiquitin Y2H fusion (from UniProt Q8L5B7) (enzyme)”, for which the binding entry in experiment [2] and in experiment [3] was “no binding” each time.
